Laboratory results from PubChem BioAssay AID2685 (National Center for Advancing Translational Sciences (NCATS), 2010).
This is one part of the list. These are further read-outs of the screen, such as a control signal, another cell line or another target. No call is given for them. Most of these compounds were active or inconclusive in the main read-out, so they are no random draw. Potencies come from curve fits of mixed quality, noted in brackets.

Assay: qHTS Assay for Lipid Storage Modulators in Drosophila S3 Cells;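 on cell number change: cells counted by Cell Tracker Red CMTPX staining in the red channel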
Conditions: BODIPY lipid droplet fluorescence, 18-24 h; for cell number change: measured here: cell count max response, cells fed with added oleic acid
How it was run: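 Laser-scanning cytometry quantifies lipid droplet accumulation (500–530 nm total intensity; droplet/cell object ratio) in oleic acid-fed (400 uM added) Drosophila S3 cells treated with a concentration series. 20 uM Triacsin C defined 100% inhibition.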

[1] = measured here: lipid fluorescence (Fed channel) AC50, cells fed with added oleic acid
[2] = measured here: cell number channel AC50, cells fed with added oleic acid

Row | Compound | AC50 [1] | cell number change | AC50 [2]
1 | Cc1ccn2cc(CNS(=O)(=O)c3ccc4c(c3)OCCO4)nc2c1 | 6.51 µM [falling, single point] |  | 
2 | CC(=O)Oc1cccc(N2C(=O)C3C(C2=O)C2C=CC3C23CC3)c1 (stereo unspecified) | 6.51 µM [rising, single point] | -4.89% | 
3 | Cc1ccc(S(=O)(=O)N2CCc3ccccc3C2CC(=O)O)cc1 (stereo unspecified) | 0.411 µM [rising, single point] | 3.42% | 
4 | O=C1CC(c2ccccc2)CC2=C1C(c1ccccn1)Nc1ccccc1N2 (stereo unspecified) | 29.1 µM [rising, single point] | 34.9% | 29.1 µM [rising, single point]
5 | COc1cc(NC(=O)COC(=O)CO/N=C(\C)c2ccc3c(c2)OCO3)cc(OC)c1 | 0.731 µM [falling, single point] | -14.4% | 
6 | O=C(Nc1ccc(Cl)c(Cl)c1)Nc1ccon1 | 15.8 µM [falling, partial curve] |  | 
7 | O=C(Cc1ccccc1F)NCC1(N2CCOCC2)CCCCC1 | 2.59 µM [falling, partial curve, poor fit] | 5.81% | 
8 | Cc1ccc(N2C(=O)NC(C(F)(F)F)(C(F)(F)F)C3=C2CC(C)(C)CC3=O)cc1 | 1.46 µM [falling, partial curve] |  | 
9 | N#CCC(=O)NCC1(c2ccccc2)CCCC1 | 29.1 µM [falling, single point] | 14.6% | 
10 | COc1cc(C(C)=O)ccc1Oc1ncnc2c1cnn2-c1ccccc1 | 1.46 µM [rising, partial curve, poor fit] | 18% | 
11 | C[C@@H]1CC=C[C@H]2[C@H]1C(=O)N(Cc1ccccc1)[C@H]2c1cccc([N+](=O)[O-])c1 | 2.31 µM [rising, single point] | -3.95% | 
12 | CC(=O)NC1=NN(C(C)=O)C2(CCCC2)S1 | 29.1 µM [falling, single point] | -150% | 29.1 µM [falling, single point]
13 | O=C(CCC(=O)Nc1nnc(C2CCCCC2)s1)NCc1cccs1 | 29.1 µM [rising, single point] | 23.2% | 
14 | CN(Cc1nc2ccccc2c(=O)[nH]1)C(=O)c1cc(C2CC2)nn1-c1ccccc1 | 0.00461 µM [rising, full curve, poor fit] | -52.6% | 29.1 µM [falling, single point]
15 | C=CCN(c1ccccc1Cl)S(=O)(=O)c1cc(C(=O)N2CCCC2)ccc1Cl |  | -0.107% | 
16 | NC(=O)c1ccc(NC(=O)CSc2nnc(-c3cccnc3)n2Cc2ccco2)cc1 |  | 12.5% | 
17 | O=C(COC(=O)/C=C/c1ccc(Br)o1)NC1CCCCC1 | 16.4 µM [rising, partial curve] | 13.3% | 
18 | CCN1C(=O)[C@H]2[C@@H](c3ccc(-c4ccc(OC)cc4)c(OC)c3)N[C@@](C)(C(=O)OC)[C@H]2C1=O | 0.0517 µM [rising, full curve, poor fit] | 17.7% | 
19 | N#CCN1C(=O)NC2(CCCc3sccc32)C1=O (stereo unspecified) | 0.116 µM [rising, single point] | 1.67% | 
20 | COc1ccc(N(CC(=O)NCc2ccccc2OC)S(=O)(=O)c2ccc(C)cc2)cc1Cl |  | -19.6% | 

Row | Compound | AC50 [1] | cell number change | AC50 [2]
21 | O=C(COc1ccccc1)NC1CCSC1=O (stereo unspecified) |  | -43.6% | 
22 | O=S(=O)(c1cccc(Cl)c1Cl)N1CCCCC1 |  | -181% | 
23 | O=C(O)c1ccccc1SCc1ccc2c(c1)OCO2 | 16.4 µM [rising, partial curve] | 60.2% | 23.1 µM [rising, single point]
24 | COc1ccc(CNCCC(c2ccc(OC)cc2)c2ccccc2OC)cc1 (stereo unspecified) | 16.4 µM [falling, partial curve, poor fit] | -49.4% | 36.6 µM [falling, partial curve, poor fit]
25 | CCN(CC)CCn1nc2c3c(cccc3c1=O)-c1ccccc1-2 |  | -3.5% | 
26 | N#CC1=C2SCN(c3ccccc3)CN2C(=O)CC1c1cccs1 (stereo unspecified) | 0.731 µM [rising, full curve, poor fit] | 3.56% | 
27 | Cc1nn(C)c(C)c1CNC(=O)c1cnn2c1NC(c1ccccc1)CC2C(F)(F)F (stereo unspecified) |  | -9.89% | 
28 | CC1CCN(C(=O)CN(c2cccc(F)c2)S(C)(=O)=O)CC1 | 0.00461 µM [falling, full curve, poor fit] | -20.2% | 
29 | N#Cc1ccc(OCc2cccc(S(=O)(=O)N3CCOCC3)c2)cc1 | 29.1 µM [rising, partial curve] | 164% | 29.1 µM [rising, single point]
30 | c1ccc(CCn2c(C3CC3)nc3ccccc32)cc1 | 0.146 µM [rising, full curve, poor fit] |  | 
31 | CCN(Cc1ccccc1)C(c1cccc(C#N)c1)c1nnnn1C(C)(C)C (stereo unspecified) | 20.6 µM [rising, partial curve] | 139% | 18.4 µM [rising, partial curve]
32 | CC(C(=O)O)n1nc(-c2ccccc2)c2ccccc21 (stereo unspecified) |  | -4.23% | 0.00461 µM [falling, full curve, poor fit]
33 | CCn1c(SCC(=O)N2CCOCC2)nc(O)cc1=O | 0.00461 µM [rising, full curve, poor fit] | 11.4% | 
34 | O=C(Nc1cccc(F)c1)c1ccc2c(c1)OCCO2 |  | 2.63% | 
35 | CCC(C)NC(=O)Nc1ccc(F)c(Cl)c1 (stereo unspecified) | 6.51 µM [falling, partial curve, poor fit] | -20% | 0.291 µM [falling, partial curve, poor fit]
36 | O=C(NCCCn1ccnc1)c1nc(Cn2cc(Br)cn2)no1 |  | -23% | 
37 | CC(=O)c1ccc(-n2nnnc2SCC(=O)Nc2sc(C)c(C)c2C#N)cc1 | 0.461 µM [rising, full curve, poor fit] | 4.27% | 
38 | COc1ccc(-c2cc(C(F)(F)F)nc(SCCC(=O)Nc3cc(C)on3)n2)cc1 | 6.51 µM [rising, single point] | -43.4% | 29.1 µM [falling, single point]
39 | CCOc1c(Br)cc(/C=C2\N=C(C)OC2=O)cc1Br |  |  | 0.731 µM [falling, single point]
40 | CCOC(=O)N1CCN(S(=O)(=O)c2ccc(C(=O)Nc3sc4c(c3C#N)CC(C)(C)NC4(C)C)cc2)CC1 |  | 36.3% | 0.0651 µM [rising, full curve, poor fit]

Nos. 22–40, reprinted for reference:
Row | Compound | AC50 [1] | cell number change | AC50 [2]
22 | O=S(=O)(c1cccc(Cl)c1Cl)N1CCCCC1 |  | -181% | 
23 | O=C(O)c1ccccc1SCc1ccc2c(c1)OCO2 | 16.4 µM [rising, partial curve] | 60.2% | 23.1 µM [rising, single point]
24 | COc1ccc(CNCCC(c2ccc(OC)cc2)c2ccccc2OC)cc1 (stereo unspecified) | 16.4 µM [falling, partial curve, poor fit] | -49.4% | 36.6 µM [falling, partial curve, poor fit]
25 | CCN(CC)CCn1nc2c3c(cccc3c1=O)-c1ccccc1-2 |  | -3.5% | 
26 | N#CC1=C2SCN(c3ccccc3)CN2C(=O)CC1c1cccs1 (stereo unspecified) | 0.731 µM [rising, full curve, poor fit] | 3.56% | 
27 | Cc1nn(C)c(C)c1CNC(=O)c1cnn2c1NC(c1ccccc1)CC2C(F)(F)F (stereo unspecified) |  | -9.89% | 
28 | CC1CCN(C(=O)CN(c2cccc(F)c2)S(C)(=O)=O)CC1 | 0.00461 µM [falling, full curve, poor fit] | -20.2% | 
29 | N#Cc1ccc(OCc2cccc(S(=O)(=O)N3CCOCC3)c2)cc1 | 29.1 µM [rising, partial curve] | 164% | 29.1 µM [rising, single point]
30 | c1ccc(CCn2c(C3CC3)nc3ccccc32)cc1 | 0.146 µM [rising, full curve, poor fit] |  | 
31 | CCN(Cc1ccccc1)C(c1cccc(C#N)c1)c1nnnn1C(C)(C)C (stereo unspecified) | 20.6 µM [rising, partial curve] | 139% | 18.4 µM [rising, partial curve]
32 | CC(C(=O)O)n1nc(-c2ccccc2)c2ccccc21 (stereo unspecified) |  | -4.23% | 0.00461 µM [falling, full curve, poor fit]
33 | CCn1c(SCC(=O)N2CCOCC2)nc(O)cc1=O | 0.00461 µM [rising, full curve, poor fit] | 11.4% | 
34 | O=C(Nc1cccc(F)c1)c1ccc2c(c1)OCCO2 |  | 2.63% | 
35 | CCC(C)NC(=O)Nc1ccc(F)c(Cl)c1 (stereo unspecified) | 6.51 µM [falling, partial curve, poor fit] | -20% | 0.291 µM [falling, partial curve, poor fit]
36 | O=C(NCCCn1ccnc1)c1nc(Cn2cc(Br)cn2)no1 |  | -23% | 
37 | CC(=O)c1ccc(-n2nnnc2SCC(=O)Nc2sc(C)c(C)c2C#N)cc1 | 0.461 µM [rising, full curve, poor fit] | 4.27% | 
38 | COc1ccc(-c2cc(C(F)(F)F)nc(SCCC(=O)Nc3cc(C)on3)n2)cc1 | 6.51 µM [rising, single point] | -43.4% | 29.1 µM [falling, single point]
39 | CCOc1c(Br)cc(/C=C2\N=C(C)OC2=O)cc1Br |  |  | 0.731 µM [falling, single point]
40 | CCOC(=O)N1CCN(S(=O)(=O)c2ccc(C(=O)Nc3sc4c(c3C#N)CC(C)(C)NC4(C)C)cc2)CC1 |  | 36.3% | 0.0651 µM [rising, full curve, poor fit]

The listing continues.

Row | Compound | AC50 [1] | cell number change | AC50 [2]
41 | CCCS(=O)(=O)c1c(S(=O)(=O)CCC)c2c(N)cccn2c1C(=O)c1ccccc1 | 6.51 µM [rising, single point] |  | 
42 | CN(C)/C=N/S(=O)(=O)c1ccc(Cl)cc1 |  | -4.53% | 
43 | CC1CCN(S(=O)(=O)c2ccc(S(=O)(=O)N3CCN4CCCC4C3)cc2)CC1 (stereo unspecified) | 0.326 µM [falling, full curve, poor fit] | -49.7% | 4.11 µM [falling, full curve]
44 | CC(=O)/C(=N\Nc1cccc(Cl)c1)Sc1cccc2cccnc12 | 0.461 µM [rising, partial curve, poor fit] | 7.18% | 
45 | CC(=O)c1c(C)[nH]c(C(=O)OCC(=O)Nc2ncc(Cl)c(C)c2Cl)c1C | 7.31 µM [rising, partial curve] | -13.2% | 
46 | COc1cccc(NC(=O)Nc2ccc3nsnc3c2)c1 |  | 10.3% | 
47 | CCn1nnc(NC(=O)COc2cc(C)ccc2C(C)C)n1 | 6.51 µM [falling, single point] |  | 
48 | CSc1nc2sc3c(c2c(=O)n1C)CCC3 |  | 12.4% | 
49 | COc1cc(OC)cc(-c2cc(N3C(=O)Nc4ccccc4N3O)n[nH]2)c1 | 10.3 µM [rising, partial curve] | 30.2% | 29.1 µM [rising, single point]
50 | CC(=O)N1C(Nc2ccc(Cl)cc2)CCN1c1ccccc1 (stereo unspecified) | 18.4 µM [falling, partial curve] | -106% | 7.31 µM [falling, partial curve, poor fit]
51 | Cc1ccc(OCC(=O)N(Cc2ccco2)C2CCS(=O)(=O)C2)cc1 (stereo unspecified) | 23.1 µM [rising, single point] | -5.73% | 
52 | CCCn1nc2cc(C(=O)NCc3ccccc3)ccc2c1OCC | 1.84 µM [falling, partial curve] | -22.6% | 
53 | CCCC(=O)N1CCC(CCC(=O)NC2CC2)CC1 | 0.58 µM [falling, single point] | 15.3% | 
54 | CN(Cc1ccccc1)C(=O)CCC1CCN(C(=O)c2ccccc2C(F)(F)F)CC1 | 0.0651 µM [falling, full curve, poor fit] | -1.08% | 
55 | O=C(Nc1cccc(O)c1)c1cc(-c2cccs2)on1 | 1.64 µM [falling, partial curve] | 14.2% | 
56 | NC(=O)c1nsc(C(=O)N(c2ccccc2)C(C(=O)NCC2CCCO2)c2ccc(F)cc2)c1N (stereo unspecified) | 18.4 µM [falling, partial curve, poor fit] | -1.74% | 
57 | CCCc1nc2ccccc2c(=O)n1/N=C/c1c(C)[nH]n(-c2ccc(C)cc2)c1=O | 0.92 µM [rising, full curve] | -14.7% | 
58 | CC(C)OCCCNC(=O)C1CCC(CNS(=O)(=O)c2ccc(Cl)cc2)CC1 (stereo unspecified) | 0.291 µM [falling, partial curve, poor fit] | -2.17% | 0.291 µM [falling, partial curve, poor fit]
59 | COc1ccc(C(=O)N2CCC(C(=O)O)CC2)c2ccccc12 | 1.16 µM [rising, single point] | 38.8% | 25.9 µM [rising, single point]
60 | CC1CCC(C(C)C)C(OC(=O)C[n+]2cc(-c3ccc(Cl)cc3)n3c2CCC3)C1 (stereo unspecified) | 29.1 µM [falling, single point] | -65.5% | 23.1 µM [falling, partial curve, poor fit]
